Reference: patent US20060160721A1, “Method of plasma lipidation to prevent, inhibit and/or reverse atherosclerosis” (BAYLOR COLLEGE OF MEDICINE, priority 2004, published 2006)

What was measured:
[1] = Association of [3H]POPC with lipoproteins in whole plasma and TLP (centrifugation, radioactivity); design: species or system human
[2] = for half time for the disappearance of [3H]cholate: dialysis at 4 C

| Structure (SMILES) | [3H]POPC sedimented by centrifugation ([1]; incubated with plasma and cholate before dialysis) | POPC sedimented by centrifugation ([1]; incubated with plasma only) | half time of [3H]cholate disappearance during dialysis ([2]; TLP (TLP-protein 2.0 mg/mL)) | half time of [3H]cholate disappearance during dialysis ([2]; TLP+1.6 mg/mL POPC) | half time of [3H]cholate disappearance during dialysis ([2]; cholate) | half time for the disappearance of [3H]cholate ([2]; cholate only) | half time for the disappearance of [3H]cholate ([2]; cholate+TLP) |
| --- | --- | --- | --- | --- | --- | --- | --- |
| CCCCCCCC/C=C\CCCCCCCC(=O)O[C@H](COC(=O)CCCCCCCCCCCCCCC)COP(=O)([O-])OCC[N+](C)(C)C [POPC, 1-palmitoyl-2-oleoyl (PO) PC] | little or no | ~90% | – | – | – | – | – |
| C[C@H](CCC(=O)[O-])[C@H]1CC[C@H]2[C@@H]3[C@H](O)C[C@@H]4C[C@H](O)CC[C@]4(C)[C@H]3C[C@H](O)[C@]12C.[Na+] [cholate, sodium cholate] | – | – | 3.0 h | 3.5 h | 2.7 h | 3.5 h | 4.5 h |

Read-outs that look alike come from different tables or passages of the source.
